Assay results taken from the supplement of paper PMC6078165.

Test system: MDAMB231
Test: relative JC-1 red fluorescence (viability) vs pre-drug, coculture with fibroblast (fraction); higher = more viable cancer cells
Protocol: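 JC-1 labelled TNBC cells cocultured 1:1 (1,500 cells each) with CellTrace Violet stained primary or stromal fibroblasts in 384-well plates in FluoroBrite medium, treated with one of 42 anticancer drugs at 0.1, 1, 10 or 100 uM. JC-1 red fluorescence (mitochondrial integrity in cancer cells only) was read by plate reader every 8 h for 72 h. Values are normalised to each well's pre-drug value. The stock of one drug was tenfold lower, so its dose labels may be too high.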

O=NN(CCCl)C(=O)NC1CCCCC1 [Lomustine]
relative JC-1 red fluorescence
Conditions | 8 h | 16 h | 24 h | 32 h | 40 h | 48 h | 56 h | 64 h | 72 h
0.1 µM, coculture fibroblast: C12385 | 0.767 | 0.74028 | 0.666 | 0.641 | 0.584 | 0.551 | 0.509 | 0.506 | 0.49
0.1 µM, coculture fibroblast: H6013 | 0.8772 | 0.85 | 0.828 | 0.82 | 0.809 | 0.804 | 0.79 | 0.773 | 0.739
0.1 µM, coculture fibroblast: H6019 | 0.7794 | 0.7052 | 0.6838 | 0.648 | 0.609 | 0.574 | 0.53 | 0.505 | 0.473
0.1 µM, coculture fibroblast: H6076 | 0.897 | 0.822 | 0.772 | 0.731 | 0.687 | 0.645 | 0.615 | 0.589 | 0.576
0.1 µM, coculture fibroblast: H6231 | 0.88 | 0.7934 | 0.726 | 0.667 | 0.618 | 0.584 | 0.544 | 0.538 | 0.514
0.1 µM, coculture fibroblast: HADF | 0.861 | 0.827 | 0.788 | 0.756 | 0.721 | 0.689 | 0.674 | 0.666 | 0.623
0.1 µM, coculture fibroblast: HCFa | 0.8642 | 0.814 | 0.764 | 0.724 | 0.679 | 0.622 | 0.604 | 0.559 | 0.515
0.1 µM, coculture fibroblast: HCPF | 0.849 | 0.7686 | 0.721 | 0.691 | 0.643 | 0.608 | 0.582 | 0.557 | 0.547
0.1 µM, coculture fibroblast: HHSteC | 0.8799 | 0.8588 | 0.8208 | 0.781 | 0.741 | 0.725 | 0.679 | 0.661 | 0.621
0.1 µM, coculture fibroblast: HMF | 0.857 | 0.7853 | 0.7278 | 0.6918 | 0.647 | 0.609 | 0.579 | 0.553 | 0.54
0.1 µM, coculture fibroblast: HPFa | 0.9142 | 0.87 | 0.808 | 0.746 | 0.732 | 0.6846 | 0.618 | 0.5906 | 0.5351
0.1 µM, coculture fibroblast: HUF | 0.848 | 0.736 | 0.754 | 0.647 | 0.584 | 0.575 | 0.535 | 0.538 | 0.522
0.1 µM, coculture fibroblast: Hs5 | 0.8822 | 0.825 | 0.786 | 0.738 | 0.694 | 0.636 | 0.601 | 0.569 | 0.539
0.1 µM, coculture fibroblast: Hs27A | 0.8744 | 0.8142 | 0.783 | 0.748 | 0.704 | 0.65 | 0.651 | 0.619 | 0.576
0.1 µM, coculture fibroblast: Hs343T | 0.839 | 0.733 | 0.679 | 0.641 | 0.589 | 0.544 | 0.502 | 0.486 | 0.472
0.1 µM, coculture fibroblast: WS1 | 0.775 | 0.696 | 0.662 | 0.589 | 0.55 | 0.523 | 0.484 | 0.484 | 0.462
1 µM, coculture fibroblast: C12385 | 0.752 | 0.717 | 0.637 | 0.614 | 0.553 | 0.516 | 0.475 | 0.46 | 0.446
1 µM, coculture fibroblast: H6013 | 0.856 | 0.791 | 0.735 | 0.719 | 0.6794 | 0.659 | 0.644 | 0.623 | 0.587
1 µM, coculture fibroblast: H6019 | 0.7449 | 0.645 | 0.584 | 0.5412 | 0.4974 | 0.4635 | 0.42078 | 0.401 | 0.357
1 µM, coculture fibroblast: H6076 | 0.86 | 0.763 | 0.725 | 0.712 | 0.683 | 0.64 | 0.623 | 0.611 | 0.601
1 µM, coculture fibroblast: H6231 | 0.889 | 0.788 | 0.696 | 0.6499 | 0.594 | 0.551 | 0.507 | 0.492 | 0.463
1 µM, coculture fibroblast: HADF | 0.854 | 0.797 | 0.742 | 0.7061 | 0.66 | 0.608 | 0.587 | 0.565 | 0.525
1 µM, coculture fibroblast: HCFa | 0.8849 | 0.7976 | 0.763 | 0.71 | 0.651 | 0.601 | 0.576 | 0.545 | 0.503
1 µM, coculture fibroblast: HCPF | 0.839 | 0.762 | 0.824 | 0.808 | 0.744 | 0.696 | 0.662 | 0.633 | 0.599
1 µM, coculture fibroblast: HHSteC | 0.883 | 0.819 | 0.774 | 0.72 | 0.675 | 0.646 | 0.595 | 0.573 | 0.532
1 µM, coculture fibroblast: HMF | 0.856 | 0.759 | 0.6761 | 0.6401 | 0.588 | 0.55 | 0.501 | 0.487 | 0.463
1 µM, coculture fibroblast: HPFa | 0.901 | 0.8402 | 0.788 | 0.726 | 0.689 | 0.645 | 0.583 | 0.556 | 0.5
1 µM, coculture fibroblast: HUF | 0.858 | 0.765 | 0.757 | 0.63 | 0.562 | 0.537 | 0.483 | 0.465 | 0.444
1 µM, coculture fibroblast: Hs5 | 0.868 | 0.795 | 0.724 | 0.68 | 0.634 | 0.576 | 0.537 | 0.51 | 0.477
1 µM, coculture fibroblast: Hs27A | 0.891 | 0.859 | 0.812 | 0.792 | 0.761 | 0.704 | 0.723 | 0.71 | 0.673
1 µM, coculture fibroblast: Hs343T | 0.858 | 0.737 | 0.629 | 0.57601 | 0.5166 | 0.464 | 0.402 | 0.3782 | 0.353
1 µM, coculture fibroblast: WS1 | 0.758 | 0.689 | 0.59875 | 0.5542 | 0.504 | 0.472 | 0.418 | 0.405 | 0.375
10 µM, coculture fibroblast: C12385 | 0.745 | 0.6956 | 0.661 | 0.602 | 0.54 | 0.523 | 0.493 | 0.503 | 0.49
10 µM, coculture fibroblast: H6013 | 0.908 | 0.893 | 0.877 | 0.873 | 0.839 | 0.826 | 0.813 | 0.794 | 0.762
10 µM, coculture fibroblast: H6019 | 0.7944 | 0.711 | 0.686 | 0.623 | 0.575 | 0.556 | 0.515 | 0.493 | 0.461
10 µM, coculture fibroblast: H6076 | 0.852 | 0.782 | 0.742 | 0.719 | 0.685 | 0.654 | 0.6366 | 0.6315 | 0.6363
10 µM, coculture fibroblast: H6231 | 0.883 | 0.793 | 0.739 | 0.698 | 0.658 | 0.633 | 0.595 | 0.583 | 0.57
10 µM, coculture fibroblast: HADF | 0.8702 | 0.826 | 0.785 | 0.7483 | 0.701 | 0.6507 | 0.628 | 0.605 | 0.56
10 µM, coculture fibroblast: HCFa | 0.9051 | 0.86214 | 0.823 | 0.7758 | 0.7184 | 0.6664 | 0.623 | 0.582 | 0.527
10 µM, coculture fibroblast: HCPF | 0.836 | 0.774 | 0.747 | 0.731 | 0.701 | 0.669 | 0.642 | 0.62 | 0.608
10 µM, coculture fibroblast: HHSteC | 0.9173 | 0.9063 | 0.8741 | 0.831 | 0.807 | 0.784 | 0.741 | 0.724 | 0.68
10 µM, coculture fibroblast: HMF | 0.846 | 0.783 | 0.736 | 0.703 | 0.664 | 0.623 | 0.589 | 0.573 | 0.563
10 µM, coculture fibroblast: HPFa | 0.827 | 0.804 | 0.776 | 0.861 | 0.838 | 0.773 | 0.714 | 0.665 | 0.597
10 µM, coculture fibroblast: HUF | 0.842 | 0.748 | 0.777 | 0.655 | 0.597 | 0.579 | 0.5416 | 0.558 | 0.558
10 µM, coculture fibroblast: Hs5 | 0.867 | 0.794 | 0.755 | 0.708 | 0.673 | 0.627 | 0.588 | 0.563 | 0.547
10 µM, coculture fibroblast: Hs27A | 0.886 | 0.849 | 0.8193 | 0.795 | 0.742 | 0.683 | 0.676 | 0.6535 | 0.6028
10 µM, coculture fibroblast: Hs343T | 0.848 | 0.7493 | 0.697 | 0.658 | 0.604 | 0.565 | 0.517 | 0.497 | 0.478
10 µM, coculture fibroblast: WS1 | 0.757 | 0.713 | 0.656 | 0.605 | 0.555 | 0.527 | 0.479 | 0.474 | 0.457
100 µM, coculture fibroblast: C12385 | 0.723 | 0.724 | 0.636 | 0.621 | 0.546 | 0.531 | 0.486 | 0.472 | 0.459
100 µM, coculture fibroblast: H6013 | 0.846 | 0.777 | 0.73 | 0.71 | 0.683 | 0.67 | 0.657 | 0.6335 | 0.5979
100 µM, coculture fibroblast: H6019 | 0.819 | 0.733 | 0.677 | 0.64 | 0.591 | 0.55 | 0.518 | 0.506 | 0.477
100 µM, coculture fibroblast: H6076 | 0.835 | 0.755 | 0.711 | 0.703 | 0.684 | 0.66 | 0.665 | 0.661 | 0.661
100 µM, coculture fibroblast: H6231 | 0.951 | 0.854 | 0.815 | 0.765 | 0.699 | 0.658 | 0.604 | 0.575 | 0.549
100 µM, coculture fibroblast: HADF | 0.8302 | 0.783 | 0.743 | 0.717 | 0.695 | 0.659 | 0.639 | 0.633 | 0.59
100 µM, coculture fibroblast: HCFa | 0.874 | 0.8243 | 0.7894 | 0.758 | 0.719 | 0.675 | 0.648 | 0.617 | 0.566
100 µM, coculture fibroblast: HCPF | 0.892 | 0.81 | 0.764 | 0.739 | 0.685 | 0.65 | 0.605 | 0.563 | 0.54
100 µM, coculture fibroblast: HHSteC | 0.8867 | 0.846 | 0.799 | 0.759 | 0.721 | 0.68217 | 0.638 | 0.615 | 0.57
100 µM, coculture fibroblast: HMF | 0.89 | 0.832 | 0.782 | 0.747 | 0.703 | 0.659 | 0.622 | 0.601 | 0.584
100 µM, coculture fibroblast: HPFa | 0.924 | 0.889 | 0.8394 | 0.7936 | 0.772 | 0.73 | 0.674 | 0.643 | 0.594
100 µM, coculture fibroblast: HUF | 0.819 | 0.723 | 0.729 | 0.64 | 0.575 | 0.558 | 0.515 | 0.507 | 0.5
100 µM, coculture fibroblast: Hs5 | 0.8543 | 0.773 | 0.74 | 0.7 | 0.6632 | 0.615 | 0.5925 | 0.5728 | 0.567
100 µM, coculture fibroblast: Hs27A | 0.892 | 0.8241 | 0.7881 | 0.7558 | 0.7082 | 0.651 | 0.647 | 0.633 | 0.586
100 µM, coculture fibroblast: Hs343T | 0.832 | 0.763 | 0.725 | 0.703 | 0.6641 | 0.6308 | 0.5858 | 0.5687 | 0.538
100 µM, coculture fibroblast: WS1 | 0.716 | 0.67 | 0.644 | 0.593 | 0.563 | 0.541 | 0.507 | 0.503 | 0.48

Values are relative to the signal before dosing, not to a vehicle control; the signal also falls without drug.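 Labels refer to human fibroblasts, largely primary: uterine (C12385, HUF), lung (H6013), bone (Hs27A), adrenal (HADF), skin (WS1), plus mammary HMF and breast cancer-associated Hs343T. Cancer lines are basal-like or mesenchymal-like triple-negative breast cancer. The paper counts as hits responses shifting over 3x the replicate standard deviation. The tissue of the other fibroblasts is not given here.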
